Values of other authors as cited in US20090118354A1, “Liquid Pharmaceutical Formulations of Docetaxel” (MAYNE PHARMA LIMITED, priority 2005, published 2009).

Settings: cited from earlier work

For `CC(=O)O[C@@]12CO[C@@H]1C[C@H](O)[C@@]1(C)C(=O)[C@H](O)C3=C(C)[C@@H](OC(=O)[C@H](O)[C@@H](NC(=O)OC(C)(C)C)c4ccccc4)C[C@@](O)([C@@H](OC(=O)c4ccccc4)[C@H]21)C3(C)C` [Docetaxel, (2R,3S)-N-carboxy-3-phenylisoserine,N-tert-butylester, 13 ester with 5β-20-epoxy-1,2α,4,7β,10β,13α-hexahydroxytax-11-en-9-one 4-acetate 2 benzoate], the solubility in ethanol is given as “soluble in ethanol” and the solubility in water is given as “practically insoluble in water”.
